# Laboratory results from patent publication US9174964B2, “AMPK-activating piperidinyloxy-substituted 2,3-dihydro-1H-indene-1-amine compounds and pharmaceutical compositions including the same” (Rigel Pharmaceuticals, Inc., priority 2007, dated 2015).
# At least one compound was matched to its structure with a doubt left.
# Molecular target: AMPK
# Test: AMPK activation, enzyme-linked immunosorbent assay
# Format: biochemical
# Details: ELISA
# Procedure: Compounds 1-50 of Table 1 were assayed for their ability to activate AMPK using an enzyme-linked immunosorbent assay.
# Compounds 51-60 of Table 1 were assayed for their ability to activate AMPK using an enzyme-linked immunosorbent assay.
# Compounds 61-131 of Table 1 were assayed for their ability to activate AMPK using an enzyme-linked immunosorbent assay.
# Compounds 137-141 and 143-155 of Table 1 were assayed for their ability to activate AMPK using an enzyme-linked immunosorbent assay.
# Compounds 156-160 of Table 1 were assayed for their ability to activate AMPK using an enzyme-linked immunosorbent assay.
"EC50 (Table 6, AMPK activation)","EC50 (Table 2, AMPK activation)",SMILES
500 to 1000 nM,,"CC(C)(C)OC(=O)N1CCC(NC2CCc3cc(OC4CCN(c5ccc(C(F)(F)F)cc5)CC4)ccc32)CC1 (stereo not drawn) [Compound 156, tert-butyl 4-(5-(1-(4-(trifluoromethyl)phenyl)piperidin-4-yloxy)-2,3-dihydro-1H-inden-1-ylamino)piperidine-1-carboxylate]"
,1000 to 5000 nM,"O=C(NC1CCN(Cc2cn(C(c3ccccc3)(c3ccccc3)c3ccccc3)cn2)CC1)c1ccc(OC2CCN(c3ccc(C(F)(F)F)cc3)CC2)cn1 [Compound 47, 5-(1-(4-(trifluoromethyl)phenyl)piperidin-4-yloxy)-N-(1-((1-trityl-1H-imidazol-4-yl)methyl)piperidin-4-yl)picolinamide]"
,100 to 500 nM,"O=C(NC1CCN(Cc2cncnc2)CC1)c1ccc(OC2CCN(c3ccc(C(F)(F)F)cc3)CC2)cn1 [Compound 44, N-(1-(pyrimidin-5-ylmethyl)piperidin-4-yl)-5-(1-(4-(trifluoromethyl)phenyl)piperidin-4-yloxy)picolinamide]"
